Source: the supplement of paper PMC6411743
± gives the standard deviation of the averaged measurements. The list shows a part of the results.

By UniProt entry, the sequences of proteins in these tests, tags left out. Where a name states a change or a piece, a line headed by the entry shows the natural chain unless it says otherwise.
UniProt Q9BW71: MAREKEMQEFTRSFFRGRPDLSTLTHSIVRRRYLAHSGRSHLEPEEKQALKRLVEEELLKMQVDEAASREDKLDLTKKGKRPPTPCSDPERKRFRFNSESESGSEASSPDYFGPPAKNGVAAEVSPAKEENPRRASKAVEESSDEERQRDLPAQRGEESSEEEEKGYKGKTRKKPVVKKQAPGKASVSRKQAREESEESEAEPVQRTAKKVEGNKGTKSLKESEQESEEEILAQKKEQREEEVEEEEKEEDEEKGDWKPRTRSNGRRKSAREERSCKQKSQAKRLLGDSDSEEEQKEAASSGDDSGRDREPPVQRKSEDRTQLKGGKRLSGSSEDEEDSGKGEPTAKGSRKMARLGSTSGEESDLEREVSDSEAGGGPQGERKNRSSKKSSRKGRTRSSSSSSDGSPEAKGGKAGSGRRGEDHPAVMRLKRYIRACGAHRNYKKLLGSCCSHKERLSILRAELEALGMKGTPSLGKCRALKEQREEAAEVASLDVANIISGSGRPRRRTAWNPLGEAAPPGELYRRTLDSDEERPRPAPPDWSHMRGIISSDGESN
UniProt Q9BTE3: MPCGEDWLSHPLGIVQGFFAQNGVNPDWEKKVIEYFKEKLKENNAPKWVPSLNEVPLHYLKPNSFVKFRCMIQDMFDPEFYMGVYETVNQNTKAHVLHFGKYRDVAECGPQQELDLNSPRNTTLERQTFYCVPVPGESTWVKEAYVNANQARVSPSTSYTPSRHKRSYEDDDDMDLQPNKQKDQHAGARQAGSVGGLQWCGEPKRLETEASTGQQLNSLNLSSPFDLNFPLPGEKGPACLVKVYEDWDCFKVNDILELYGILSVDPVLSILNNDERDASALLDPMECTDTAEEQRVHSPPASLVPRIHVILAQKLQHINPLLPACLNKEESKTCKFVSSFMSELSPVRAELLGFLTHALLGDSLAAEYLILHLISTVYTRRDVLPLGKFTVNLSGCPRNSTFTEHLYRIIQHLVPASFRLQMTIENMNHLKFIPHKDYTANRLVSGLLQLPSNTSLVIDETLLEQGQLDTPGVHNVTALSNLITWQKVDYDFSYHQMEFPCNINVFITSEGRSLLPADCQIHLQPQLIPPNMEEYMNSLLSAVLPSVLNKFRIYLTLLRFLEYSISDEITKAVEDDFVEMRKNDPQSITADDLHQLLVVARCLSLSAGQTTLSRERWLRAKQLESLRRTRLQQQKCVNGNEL
UniProt Q99497, whole entry: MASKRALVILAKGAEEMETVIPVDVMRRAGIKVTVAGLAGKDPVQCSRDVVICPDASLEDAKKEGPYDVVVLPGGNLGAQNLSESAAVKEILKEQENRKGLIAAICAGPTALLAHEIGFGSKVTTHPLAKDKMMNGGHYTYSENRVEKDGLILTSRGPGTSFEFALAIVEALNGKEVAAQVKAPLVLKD

Compound: Nc1nc2c(ncn2[C@@H]2O[C@H](COP(=O)(O)OP(=O)(O)OP(=O)(O)O)[C@@H](O)[C@H]2O)c(=O)[nH]1 [guanosine triphosphate]
Test: NP40-soluble protein abundance relative to vehicle (solubility fold change) (ratio); higher = more soluble protein in presence of GTP
Protocol: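 Solubility proteome profiling in Jurkat crude lysate. Lysate was treated with Mg-GTP (0.1-10 mM) for 10 min at room temperature and 3 min at 37 °C, then solubilised with 0.8% NP40 and benzonase, followed by ultracentrifugation. Proteins were quantified by TMT10 LC-MS/MS; the value is the NP40-soluble abundance relative to the NP40-processed vehicle, from 3 independent experiments.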

Target	NP40-soluble protein abundance (concentration: 0.1mM)	NP40-soluble protein abundance (concentration: 0.5mM)	NP40-soluble protein abundance (concentration: 1mM)	NP40-soluble protein abundance (concentration: 2mM)	NP40-soluble protein abundance (concentration: 4mM)	NP40-soluble protein abundance (concentration: 6mM)	NP40-soluble protein abundance (concentration: 8mM)	NP40-soluble protein abundance (concentration: 10mM)
HIRIP3 (UniProt Q9BW71)	0.932 ± 0.071	0.925 ± 0.089	1.01 ± 0.1	0.983 ± 0.15	1.04 ± 0.14	1.07 ± 0.14	1.13 ± 0.06	1.14 ± 0.094
UniProt Q9BTE3 and related entries	0.97 ± 0.039	1 ± 0.086	0.948 ± 0.019	0.952 ± 0.033	0.928 ± 0.025	0.923 ± 0.022	0.916 ± 0.034	0.909 ± 0.015
UniProt Q9BY12-2	1.16 ± 0.15	1.12 ± 0.22	1.14 ± 0.11	1.1 ± 0.12	1.04 ± 0.22	1.07 ± 0.2	1.2 ± 0.19	1.08 ± 0.14
UniProt Q99729-3	0.929 ± 0.068	0.972 ± 0.1	1.03 ± 0.049	0.955 ± 0.11	0.934 ± 0.075	0.98 ± 0.072	1.03 ± 0.05	0.986 ± 0.085
PARK7 (UniProt Q99497)	0.906 ± 0.068	0.917 ± 0.085	0.914 ± 0.075	0.851 ± 0.089	0.848 ± 0.075	0.856 ± 0.089	0.851 ± 0.099	0.826 ± 0.081
